The text below walks through data of PMC13022674.

By UniProt entry, the sequences of proteins in these tests, tags left out. Residues count along the entry.
UniProt Q13569, 82-308 A145G: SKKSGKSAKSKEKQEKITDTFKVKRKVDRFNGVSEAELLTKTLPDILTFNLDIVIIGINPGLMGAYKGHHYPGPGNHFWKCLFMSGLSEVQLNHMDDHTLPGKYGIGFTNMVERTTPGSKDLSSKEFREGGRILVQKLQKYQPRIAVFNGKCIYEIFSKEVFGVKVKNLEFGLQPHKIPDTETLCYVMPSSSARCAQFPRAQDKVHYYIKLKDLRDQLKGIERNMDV

The exact form of at least one protein or probe is not confirmed. At least one verdict rests on a figure or table, not on a statement of the authors.

This data set concerns the target TDG A145G (UniProt Q13569). The data set is described as follows: 19F NMR. The following applies: large flipping-induced shift, text says TDG, legend TDG A145G; 2'-deoxy-2'-fluoroarabinothymidine (TF) at strand 1 pos 18; NMR: 0.1 M NaCl, 0.03 mM TCEP, 15 mM Tris-HCl pH 7.5, 10% D2O, 25 C; recombinant protein; residues 82-308.

For “TGTGTCACCACTGCTCATGTACAGAGCTG / CAGCTCTGTACGTGAGCAGTGGTGACAC [D2-TF]”, the binding result was “binds”.
